These are yes or no findings as the source states them, for the method shown. In cells and extracts the contact can be indirect. Some entries that bind do so weakly or less than the wild type. Tags and fused reporters may be left off the sequences shown. Blank lines part the entries; values can stand above or below the binder they belong to.
Experiments:
GST-praja2 = target: T1, GST-praja2 (UniProt O43164); assay: pull-down; 20 μl GST-Praja2 beads with in vitro translated [35S]-KSR2 in 200 μl lysis buffer (150 mM NaCl, 50 mM Tris-HCl pH 7.5, 1 mM EDTA, 0.5% Triton X-100), 4 °C overnight; washes with 0.4 M NaCl; autoradiography; only the target purified
T1 sequence: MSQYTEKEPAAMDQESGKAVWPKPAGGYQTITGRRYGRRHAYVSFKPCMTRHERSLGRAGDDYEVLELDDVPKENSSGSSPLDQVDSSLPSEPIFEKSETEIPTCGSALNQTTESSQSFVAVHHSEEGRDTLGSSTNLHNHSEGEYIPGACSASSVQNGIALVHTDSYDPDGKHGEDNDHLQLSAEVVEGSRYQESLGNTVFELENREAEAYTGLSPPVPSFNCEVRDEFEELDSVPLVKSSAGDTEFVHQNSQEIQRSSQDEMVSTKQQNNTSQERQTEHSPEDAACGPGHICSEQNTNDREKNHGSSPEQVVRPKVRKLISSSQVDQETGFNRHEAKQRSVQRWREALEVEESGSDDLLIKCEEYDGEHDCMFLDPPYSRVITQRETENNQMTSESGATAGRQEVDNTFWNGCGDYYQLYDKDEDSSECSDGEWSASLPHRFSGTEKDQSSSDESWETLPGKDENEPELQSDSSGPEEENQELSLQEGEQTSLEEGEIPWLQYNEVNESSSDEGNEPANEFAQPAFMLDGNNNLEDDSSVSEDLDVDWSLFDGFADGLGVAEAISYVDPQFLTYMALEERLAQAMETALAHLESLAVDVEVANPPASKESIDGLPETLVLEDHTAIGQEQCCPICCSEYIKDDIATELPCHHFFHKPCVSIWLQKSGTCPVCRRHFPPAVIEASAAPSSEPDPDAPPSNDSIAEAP

Flag-praja2 = target: T2, Flag-praja2 (UniProt O43164); assay: co-IP; lysates of HEK293 cells transiently expressing Flag-praja2 and KSR2-Myc; immunoprecipitation with anti-Flag; 1% Triton buffer
T2 sequence: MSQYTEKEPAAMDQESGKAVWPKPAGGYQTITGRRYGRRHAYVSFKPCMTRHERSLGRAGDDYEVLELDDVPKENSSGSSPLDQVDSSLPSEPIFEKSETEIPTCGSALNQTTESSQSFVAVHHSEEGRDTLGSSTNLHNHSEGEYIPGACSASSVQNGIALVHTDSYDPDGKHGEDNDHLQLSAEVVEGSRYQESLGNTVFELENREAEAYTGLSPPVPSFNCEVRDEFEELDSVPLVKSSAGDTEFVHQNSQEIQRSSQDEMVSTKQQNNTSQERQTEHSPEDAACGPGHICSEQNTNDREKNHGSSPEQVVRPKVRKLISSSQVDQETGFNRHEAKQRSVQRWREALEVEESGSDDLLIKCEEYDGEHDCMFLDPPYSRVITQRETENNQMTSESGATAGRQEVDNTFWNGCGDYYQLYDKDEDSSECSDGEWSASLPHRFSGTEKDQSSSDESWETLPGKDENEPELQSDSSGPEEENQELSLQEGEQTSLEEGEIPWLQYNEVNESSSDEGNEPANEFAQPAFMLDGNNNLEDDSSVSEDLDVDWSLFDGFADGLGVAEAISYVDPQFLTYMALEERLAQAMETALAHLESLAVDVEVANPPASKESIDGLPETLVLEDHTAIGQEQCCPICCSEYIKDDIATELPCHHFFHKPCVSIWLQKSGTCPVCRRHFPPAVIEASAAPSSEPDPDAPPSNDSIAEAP

KSR2-Myc = target: T3, KSR2-Myc (UniProt Q6VAB6); assay: co-IP; lysates of HEK293 cells transiently transfected with Myc-tagged KSR2 and Flag-praja2 vectors; immunoprecipitation with anti-Myc, blots with anti-Flag and anti-Myc; 1% Triton buffer (150 mM NaCl, 50 mM Tris-HCl pH 7.5, 1 mM EDTA, 5 mM MgCl2), overnight
T3 sequence: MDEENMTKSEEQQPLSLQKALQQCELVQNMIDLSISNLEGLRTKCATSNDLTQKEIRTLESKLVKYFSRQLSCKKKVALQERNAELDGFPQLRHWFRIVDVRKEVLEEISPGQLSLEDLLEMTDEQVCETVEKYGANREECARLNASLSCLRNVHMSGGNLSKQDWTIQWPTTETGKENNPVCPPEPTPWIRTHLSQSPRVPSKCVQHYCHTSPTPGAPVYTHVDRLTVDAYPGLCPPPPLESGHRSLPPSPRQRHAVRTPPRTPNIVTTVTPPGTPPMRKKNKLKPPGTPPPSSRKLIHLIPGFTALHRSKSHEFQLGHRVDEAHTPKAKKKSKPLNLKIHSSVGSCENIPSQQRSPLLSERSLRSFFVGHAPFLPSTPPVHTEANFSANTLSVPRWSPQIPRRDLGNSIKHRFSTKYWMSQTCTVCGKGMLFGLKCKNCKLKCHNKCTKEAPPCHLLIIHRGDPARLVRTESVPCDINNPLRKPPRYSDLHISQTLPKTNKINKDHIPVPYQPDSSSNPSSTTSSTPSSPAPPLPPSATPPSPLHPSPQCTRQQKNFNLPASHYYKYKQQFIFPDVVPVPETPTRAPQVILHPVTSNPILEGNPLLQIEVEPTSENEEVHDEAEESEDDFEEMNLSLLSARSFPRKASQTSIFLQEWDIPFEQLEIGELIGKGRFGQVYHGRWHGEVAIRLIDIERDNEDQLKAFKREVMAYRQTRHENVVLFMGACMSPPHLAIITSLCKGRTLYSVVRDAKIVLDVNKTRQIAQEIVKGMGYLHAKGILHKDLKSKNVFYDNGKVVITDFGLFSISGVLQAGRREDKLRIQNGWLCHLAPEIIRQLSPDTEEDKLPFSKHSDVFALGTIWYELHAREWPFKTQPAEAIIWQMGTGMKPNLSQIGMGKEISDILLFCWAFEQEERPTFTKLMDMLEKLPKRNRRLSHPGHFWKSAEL

binding (GST-praja2): binds
B1: in vitro translated, [35S]-labeled KSR2 (protein, UniProt Q6VAB6 1-950)
chain: MDEENMTKSEEQQPLSLQKALQQCELVQNMIDLSISNLEGLRTKCATSNDLTQKEIRTLESKLVKYFSRQLSCKKKVALQERNAELDGFPQLRHWFRIVDVRKEVLEEISPGQLSLEDLLEMTDEQVCETVEKYGANREECARLNASLSCLRNVHMSGGNLSKQDWTIQWPTTETGKENNPVCPPEPTPWIRTHLSQSPRVPSKCVQHYCHTSPTPGAPVYTHVDRLTVDAYPGLCPPPPLESGHRSLPPSPRQRHAVRTPPRTPNIVTTVTPPGTPPMRKKNKLKPPGTPPPSSRKLIHLIPGFTALHRSKSHEFQLGHRVDEAHTPKAKKKSKPLNLKIHSSVGSCENIPSQQRSPLLSERSLRSFFVGHAPFLPSTPPVHTEANFSANTLSVPRWSPQIPRRDLGNSIKHRFSTKYWMSQTCTVCGKGMLFGLKCKNCKLKCHNKCTKEAPPCHLLIIHRGDPARLVRTESVPCDINNPLRKPPRYSDLHISQTLPKTNKINKDHIPVPYQPDSSSNPSSTTSSTPSSPAPPLPPSATPPSPLHPSPQCTRQQKNFNLPASHYYKYKQQFIFPDVVPVPETPTRAPQVILHPVTSNPILEGNPLLQIEVEPTSENEEVHDEAEESEDDFEEMNLSLLSARSFPRKASQTSIFLQEWDIPFEQLEIGELIGKGRFGQVYHGRWHGEVAIRLIDIERDNEDQLKAFKREVMAYRQTRHENVVLFMGACMSPPHLAIITSLCKGRTLYSVVRDAKIVLDVNKTRQIAQEIVKGMGYLHAKGILHKDLKSKNVFYDNGKVVITDFGLFSISGVLQAGRREDKLRIQNGWLCHLAPEIIRQLSPDTEEDKLPFSKHSDVFALGTIWYELHAREWPFKTQPAEAIIWQMGTGMKPNLSQIGMGKEISDILLFCWAFEQEERPTFTKLMDMLEKLPKRNRRLSHPGHFWKSAEL
modifications: [35S] label

binding (Flag-praja2): binds
B2: KSR2-Myc (protein, UniProt Q6VAB6 1-950)
chain: MDEENMTKSEEQQPLSLQKALQQCELVQNMIDLSISNLEGLRTKCATSNDLTQKEIRTLESKLVKYFSRQLSCKKKVALQERNAELDGFPQLRHWFRIVDVRKEVLEEISPGQLSLEDLLEMTDEQVCETVEKYGANREECARLNASLSCLRNVHMSGGNLSKQDWTIQWPTTETGKENNPVCPPEPTPWIRTHLSQSPRVPSKCVQHYCHTSPTPGAPVYTHVDRLTVDAYPGLCPPPPLESGHRSLPPSPRQRHAVRTPPRTPNIVTTVTPPGTPPMRKKNKLKPPGTPPPSSRKLIHLIPGFTALHRSKSHEFQLGHRVDEAHTPKAKKKSKPLNLKIHSSVGSCENIPSQQRSPLLSERSLRSFFVGHAPFLPSTPPVHTEANFSANTLSVPRWSPQIPRRDLGNSIKHRFSTKYWMSQTCTVCGKGMLFGLKCKNCKLKCHNKCTKEAPPCHLLIIHRGDPARLVRTESVPCDINNPLRKPPRYSDLHISQTLPKTNKINKDHIPVPYQPDSSSNPSSTTSSTPSSPAPPLPPSATPPSPLHPSPQCTRQQKNFNLPASHYYKYKQQFIFPDVVPVPETPTRAPQVILHPVTSNPILEGNPLLQIEVEPTSENEEVHDEAEESEDDFEEMNLSLLSARSFPRKASQTSIFLQEWDIPFEQLEIGELIGKGRFGQVYHGRWHGEVAIRLIDIERDNEDQLKAFKREVMAYRQTRHENVVLFMGACMSPPHLAIITSLCKGRTLYSVVRDAKIVLDVNKTRQIAQEIVKGMGYLHAKGILHKDLKSKNVFYDNGKVVITDFGLFSISGVLQAGRREDKLRIQNGWLCHLAPEIIRQLSPDTEEDKLPFSKHSDVFALGTIWYELHAREWPFKTQPAEAIIWQMGTGMKPNLSQIGMGKEISDILLFCWAFEQEERPTFTKLMDMLEKLPKRNRRLSHPGHFWKSAEL

binding (KSR2-Myc): binds
B3: Flag-praja2 (enzyme, UniProt O43164 1-708)
chain: MSQYTEKEPAAMDQESGKAVWPKPAGGYQTITGRRYGRRHAYVSFKPCMTRHERSLGRAGDDYEVLELDDVPKENSSGSSPLDQVDSSLPSEPIFEKSETEIPTCGSALNQTTESSQSFVAVHHSEEGRDTLGSSTNLHNHSEGEYIPGACSASSVQNGIALVHTDSYDPDGKHGEDNDHLQLSAEVVEGSRYQESLGNTVFELENREAEAYTGLSPPVPSFNCEVRDEFEELDSVPLVKSSAGDTEFVHQNSQEIQRSSQDEMVSTKQQNNTSQERQTEHSPEDAACGPGHICSEQNTNDREKNHGSSPEQVVRPKVRKLISSSQVDQETGFNRHEAKQRSVQRWREALEVEESGSDDLLIKCEEYDGEHDCMFLDPPYSRVITQRETENNQMTSESGATAGRQEVDNTFWNGCGDYYQLYDKDEDSSECSDGEWSASLPHRFSGTEKDQSSSDESWETLPGKDENEPELQSDSSGPEEENQELSLQEGEQTSLEEGEIPWLQYNEVNESSSDEGNEPANEFAQPAFMLDGNNNLEDDSSVSEDLDVDWSLFDGFADGLGVAEAISYVDPQFLTYMALEERLAQAMETALAHLESLAVDVEVANPPASKESIDGLPETLVLEDHTAIGQEQCCPICCSEYIKDDIATELPCHHFFHKPCVSIWLQKSGTCPVCRRHFPPAVIEASAAPSSEPDPDAPPSNDSIAEAP
